Some of the results follow.
Each sequence was assayed against OsWRKY34 (Oryza sativa, UniProt Q0JBA9 1-250) (assay: protein-binding microarray (RPBM); PBS, 2% BSA, 51.3 ng/ul salmon testes DNA, 50 uM zinc acetate, 200 nM TF, 25 C, 1 h; high values mean tight binding). Details: protein: recombinant; tags: N-terminal polyhistidine and DsRed monomer fusion (pET32a); label: CyDye5-dUTP incorporated in the synthesized complementary strand; 3' TTTTT single-stranded linker to array surface; dsDNA, one strand shown.
Method in brief: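 Ni–NTA purification followed expression in E. coli BL21-CodonPlus of transcription factors fused N-terminally to a polyhistidine tag and DsRed. At 200 nM in PBS with 2% BSA, salmon testes DNA and 50 µM zinc acetate, the protein was incubated for 1 h at 25 °C with a custom Agilent array that had been primer-extended with Cy5-dUTP and blocked with 2% BSA. After washing, the array was read on an Axon 4000B scanner. The binding signal is per-feature fluorescence intensity in arbitrary units.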

Protein sequences, listed by entry. Tags and fused reporters are not part of them.
UniProt Q0JBA9, entry or part of it: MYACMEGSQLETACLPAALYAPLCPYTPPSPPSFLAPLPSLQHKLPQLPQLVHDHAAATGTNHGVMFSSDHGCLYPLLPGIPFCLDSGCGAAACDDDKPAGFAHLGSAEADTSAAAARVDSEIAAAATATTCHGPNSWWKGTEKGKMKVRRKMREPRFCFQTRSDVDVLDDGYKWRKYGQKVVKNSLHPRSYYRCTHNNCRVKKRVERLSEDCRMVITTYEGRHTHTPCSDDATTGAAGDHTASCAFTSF

Sequence | binding signal
GACCTCACCGTCTCACCGCCGCATCCCGCTCGCCGGTCACCGGAGTCACCTAGTGCAG | 9430 fluorescence intensity (a.u.)
TCTGAAGTTCGGGTCCATATTTTCCTTGCTACCAACATCACGGAGTCACCTAGTGCAG | 9610 fluorescence intensity (a.u.)
CGCACACGCCATGTACACCAGTATTGTACGCTTAACGCGTCGGAGTCACCTAGTGCAG | 10200 fluorescence intensity (a.u.)
CACAGATGAACCCTACTCTATTTTGCACCCGCTGCGGCTCCGGAGTCACCTAGTGCAG | 8110 fluorescence intensity (a.u.)
GTCCTCTTTCAATTATATAATATGTTACTTTTGATCACAACGGAGTCACCTAGTGCAG | 9180 fluorescence intensity (a.u.)
TTTGAGTTAATGGTTTGCTTGTTTGATCTATCTTAAATCCCGGAGTCACCTAGTGCAG | 9780 fluorescence intensity (a.u.)
GATTGGTTTCTCCTCCGGTTTTCCCCATCGATCCCCTTCTCGGAGTCACCTAGTGCAG | 16100 fluorescence intensity (a.u.)
AATCACATTCGTTCTTCTCCACCCAGTGCTACAACAACCTCGGAGTCACCTAGTGCAG | 8440 fluorescence intensity (a.u.)
TTGTTCTTTTTTAGGTCTTGCTTAGTTCCAAAGTTTTTTTCGGAGTCACCTAGTGCAG | 11000 fluorescence intensity (a.u.)
CTTCTTCTTCTTCTTCGTCTTCGTCACCGCCAGCCAACCACGGAGTCACCTAGTGCAG | 9560 fluorescence intensity (a.u.)
TTTTTTCCTCTCTGTGTGTGTTTGACTGTACGGAATGAGACGGAGTCACCTAGTGCAG | 9980 fluorescence intensity (a.u.)
TTGCTTGTTTTTCTTTTTGGGCATACTGATCTTAATTTTTCGGAGTCACCTAGTGCAG | 10000 fluorescence intensity (a.u.)
CCACGCCGAAACGCACGTCTCGTCGTCTTCATCATCGTCGCGGAGTCACCTAGTGCAG | 9700 fluorescence intensity (a.u.)
AAACTCATGTACTCTGTTGTGCTATTCTTTTTCATGAACTCGGAGTCACCTAGTGCAG | 12000 fluorescence intensity (a.u.)
AGTTTGCAAGCAAGATCTGTACAGCCACGCACTTCTTATTCGGAGTCACCTAGTGCAG | 8550 fluorescence intensity (a.u.)
AGAGAGAGAGAGGGGTGGCATTGTGGAGGAGGTGGGCGGCCGGAGTCACCTAGTGCAG | 8880 fluorescence intensity (a.u.)
CGTGAAGACTCGGGTGGGGTTGGTGGTGGCTGTGTGTAGCCGGAGTCACCTAGTGCAG | 12500 fluorescence intensity (a.u.)
GTCGTCGGCTCTTGGATGCTAAAACTAGATATTCCCCTGTCGGAGTCACCTAGTGCAG | 8290 fluorescence intensity (a.u.)
CTTAAGTTATTATCTACTGTACTTTAAATATAATTTTTCGCGGAGTCACCTAGTGCAG | 8350 fluorescence intensity (a.u.)
ATGCTTCCACTGTATGCTTGTTTCATCAGTTTCGCAGATGCGGAGTCACCTAGTGCAG | 9380 fluorescence intensity (a.u.)
GGGGCCCATGTAGTGTGTCGCCGGCTTGCGTCCGCCGCCGCGGAGTCACCTAGTGCAG | 8050 fluorescence intensity (a.u.)

Sequence | binding signal
CCTCTCTTCCGTTGCGATTCCTTGTACGTTTCCTTCCCCTCGGAGTCACCTAGTGCAG | 9490 fluorescence intensity (a.u.)
AGCTGTTACCTGTTCATTTTCTGGTGCTAAGTTTTTGACACGGAGTCACCTAGTGCAG | 8910 fluorescence intensity (a.u.)
GTTCTTGGTTCCTGCATTTCTTTTCTTTTTTGCCTTTGTTCGGAGTCACCTAGTGCAG | 11300 fluorescence intensity (a.u.)
CCGCTACTACTGCTTGTCTGCTGCTGCAGCTGCTGTTATTCGGAGTCACCTAGTGCAG | 9890 fluorescence intensity (a.u.)
CTCTAGTATCCTTGTGTTCCTCGTCGTCGGCGACGAGGACCGGAGTCACCTAGTGCAG | 8460 fluorescence intensity (a.u.)
CTCCGTCGCTTCATGTTCAACAAGTTAATTCACACTTTAACGGAGTCACCTAGTGCAG | 10700 fluorescence intensity (a.u.)
ATGGCCGCCGCTTTTCCTCATTTTTGCTCGATCCACTGCTCGGAGTCACCTAGTGCAG | 10600 fluorescence intensity (a.u.)
CTTCACCTTCTCCTTCTCCAACATCACCATCACCCGGCAACGGAGTCACCTAGTGCAG | 8950 fluorescence intensity (a.u.)
TTTTAATTAGAATCTAATTAATTGTGGGTTGTTTCAGCTTCGGAGTCACCTAGTGCAG | 8340 fluorescence intensity (a.u.)
ATTATCTCCAAACGGTTTGATTTCATGCTCTTCGTACAATCGGAGTCACCTAGTGCAG | 8520 fluorescence intensity (a.u.)
AGTAAGAATTCTGCATGTTCCCTGCTCCACATTACTACATCGGAGTCACCTAGTGCAG | 8660 fluorescence intensity (a.u.)
ACCTCGATCAGCACCATTTGCACGCTTAACCACATGATGGCGGAGTCACCTAGTGCAG | 8710 fluorescence intensity (a.u.)
CTCGCGAATTAGTCCAAGTTTATGGAATGGGTTTTGTAATCGGAGTCACCTAGTGCAG | 8780 fluorescence intensity (a.u.)
ATACCCGTCTTTTCCTTCCCTTTCATCAATTGCCTCTTGTCGGAGTCACCTAGTGCAG | 11500 fluorescence intensity (a.u.)
CCACCTCGTTTTATGTAAAACACTTAATCTTCAACTTCAGCGGAGTCACCTAGTGCAG | 8860 fluorescence intensity (a.u.)
GACGGCGAGGTGAGGCGGGAGGCGGTGGTGGTGGAGGAGGCGGAGTCACCTAGTGCAG | 11800 fluorescence intensity (a.u.)
TGCATTGGATTTCGCCATGGCTCCCAGTCTGGCAGGATTTCGGAGTCACCTAGTGCAG | 8160 fluorescence intensity (a.u.)
CCCACCTTGCCTCACCATTGTACGTACCATCTACTCCTGGCGGAGTCACCTAGTGCAG | 10600 fluorescence intensity (a.u.)
GGAGCGCTGGGAGGAAGGGCGTAGGGAGGGAGGGGTGAGGCGGAGTCACCTAGTGCAG | 11600 fluorescence intensity (a.u.)
TGCAAGGCCAATACACGTACAATCCACAGCCCAATTAATCCGGAGTCACCTAGTGCAG | 8040 fluorescence intensity (a.u.)
GTGGCAAGTTGGGCGCGTAAGAGATGCGGAGGGAGGGGAACGGAGTCACCTAGTGCAG | 8520 fluorescence intensity (a.u.)

Sequence | binding signal
TGTCCAATTGTCTGTCCAAAACTGTGTGTCCACCCCATCACGGAGTCACCTAGTGCAG | 8270 fluorescence intensity (a.u.)
CGTGGTTTCGATTTTTCTGCCCAAGTTTTGTAACTTAGCTCGGAGTCACCTAGTGCAG | 8180 fluorescence intensity (a.u.)
AAAAACCGCGCGCCGCGGCTCTCTCGACCACTTCCATTCCCGGAGTCACCTAGTGCAG | 10100 fluorescence intensity (a.u.)
TCCCTAAATGTTTAACGTCGTTGACTTTTTAAAATATGTTCGGAGTCACCTAGTGCAG | 21000 fluorescence intensity (a.u.)
AGTTTCAGTAGCCTCGCCGATCGACTTGCCACACCGCCGTCGGAGTCACCTAGTGCAG | 9260 fluorescence intensity (a.u.)
CGAGTAAATTCACTCTCTTTTTTCCCTTTCTCATCATCTCCGGAGTCACCTAGTGCAG | 9450 fluorescence intensity (a.u.)
ACATGCTTCATATTCTCATGGACTTTCATCCTTCGTAAATCGGAGTCACCTAGTGCAG | 8970 fluorescence intensity (a.u.)
TTTTCTTTTTTATTTTAATTGATTCAATGATCTTTGTGCTCGGAGTCACCTAGTGCAG | 8070 fluorescence intensity (a.u.)
CCAAACATACCCATTATCACATATCGCAGCCGCCCATGTTCGGAGTCACCTAGTGCAG | 8290 fluorescence intensity (a.u.)
TTCTCGTCATCTTGGTCTGCTCCTACGTCTCCGCCCATGTCGGAGTCACCTAGTGCAG | 8800 fluorescence intensity (a.u.)
TCTTTTTTTAGTCAATTCCATATTTTGTACTGATTAAATTCGGAGTCACCTAGTGCAG | 10100 fluorescence intensity (a.u.)
CTGAGCAAATTCATGGTGGGAAAAGGGGTTTTCATGTAATCGGAGTCACCTAGTGCAG | 10700 fluorescence intensity (a.u.)
AGCATGTGTAGAGGGAGTTGTCGTTTTCTGAGGAGCAAGACGGAGTCACCTAGTGCAG | 8660 fluorescence intensity (a.u.)
CCATCGGAGCACCGGCGCCCCTTCTCTCTTTCTCTCTGCTCGGAGTCACCTAGTGCAG | 8820 fluorescence intensity (a.u.)
TGGTTGTTTTTTTCTTGTGCTCCCTGTATTGGATATGCTACGGAGTCACCTAGTGCAG | 8090 fluorescence intensity (a.u.)
AGCTCACTAACCTGCTCTTTCCTGGTCCTGGAGGTCTTTGCGGAGTCACCTAGTGCAG | 8870 fluorescence intensity (a.u.)
CGTGCGACGCCACTGCTCACTTTGTCTCGACCACTGTCCGCGGAGTCACCTAGTGCAG | 9320 fluorescence intensity (a.u.)
CCCTTCACAGTTCCTTTGCCTGTCCCCGGTAATGGTCTTTCGGAGTCACCTAGTGCAG | 9040 fluorescence intensity (a.u.)
TTATACCTTCTTTCTTTGTAAGCTACCGTGTCGATCTTTTCGGAGTCACCTAGTGCAG | 8400 fluorescence intensity (a.u.)
TCTTTCCTGCGTACTATATCACATATTCGAGGCTCGAAACCGGAGTCACCTAGTGCAG | 8590 fluorescence intensity (a.u.)
CACCAACTAATTTCATTGGAATTTTGTGGGAGGTGGAGGGCGGAGTCACCTAGTGCAG | 9220 fluorescence intensity (a.u.)

Sequence | binding signal
CGGTTCGCTTCCCTTTCTCGTCAGAAGGCTCACTCCGTCTCGGAGTCACCTAGTGCAG | 8360 fluorescence intensity (a.u.)
ATATACCGTACCCCATCGCCATCGATCGGTGTCATTCATTCGGAGTCACCTAGTGCAG | 8040 fluorescence intensity (a.u.)
CAATGTACCATACTCATCTTTTTCGTTTATGCTTATACCTCGGAGTCACCTAGTGCAG | 9500 fluorescence intensity (a.u.)
CTCCCGCCGCATTTGCATCCTAATCCATCCCATCTGGCCTCGGAGTCACCTAGTGCAG | 10600 fluorescence intensity (a.u.)
TACTTTTCCAACCCAACCTCAAACACAACCAATCCACCTCCGGAGTCACCTAGTGCAG | 8080 fluorescence intensity (a.u.)
ATGGCGACTTTGGATTCTCCAGCCTCTTGTGTTTGCCTTTCGGAGTCACCTAGTGCAG | 9480 fluorescence intensity (a.u.)
GAGCGTGGGGCGGAGATTTTCGACTCGTCTTCCGTTACGGCGGAGTCACCTAGTGCAG | 8930 fluorescence intensity (a.u.)
CTCAACATATTTCCTCCAATGTTCCTGCCTGTGGCTCACTCGGAGTCACCTAGTGCAG | 8640 fluorescence intensity (a.u.)
CATCACTCCTACCTCGTGTCTCTGACACCCTGACCACACGCGGAGTCACCTAGTGCAG | 9400 fluorescence intensity (a.u.)
GGCGGCGGCGGCGACTCGGCTCTCGCTTCCACGCATCCATCGGAGTCACCTAGTGCAG | 9160 fluorescence intensity (a.u.)
AGTCCATTTTTCAGTAGTCCTCATGGCTTGTAGGTTTTCACGGAGTCACCTAGTGCAG | 9510 fluorescence intensity (a.u.)
ATACACACTTCAGTCACTCGGTAGGCCACTCCGTACGGCACGGAGTCACCTAGTGCAG | 8510 fluorescence intensity (a.u.)
CATTGAATTTGCACTAGCATCTCTTCTATTTATATCTACTCGGAGTCACCTAGTGCAG | 9110 fluorescence intensity (a.u.)
AAGGGAGGGTTTTTATGAAATTTGTACCACCTACTTTTTGCGGAGTCACCTAGTGCAG | 8580 fluorescence intensity (a.u.)
CCATTTTTTCACTTTAGTGTTGCGCAGTAGTACACCACCACGGAGTCACCTAGTGCAG | 8280 fluorescence intensity (a.u.)
TCAACCATTCATTGCTCTTCACTATCCAATTTATTTTTGTCGGAGTCACCTAGTGCAG | 8500 fluorescence intensity (a.u.)
TTGATTGATTTTTTTTATATATATTTGCTATTAATAGTCACGGAGTCACCTAGTGCAG | 8830 fluorescence intensity (a.u.)
TCTAAAATGATCATGTCGCCCATTTCCCATACTTACATGCCGGAGTCACCTAGTGCAG | 8540 fluorescence intensity (a.u.)
CGCTCCCAACACCTCGCGCATTCACTCTGACGCACCGGGCCGGAGTCACCTAGTGCAG | 8340 fluorescence intensity (a.u.)
ACCGCCACAGCTTCTGCTTTTTCGCGCGCACCGCGATAGCCGGAGTCACCTAGTGCAG | 9710 fluorescence intensity (a.u.)
ACGTCAATTCTATTCCTATATTTTTCATATATCGGTTCCTCGGAGTCACCTAGTGCAG | 9600 fluorescence intensity (a.u.)

Given tab-delimited: part of the list above
Sequence	binding signal
ATGGCGACTTTGGATTCTCCAGCCTCTTGTGTTTGCCTTTCGGAGTCACCTAGTGCAG	9480 fluorescence intensity (a.u.)
GAGCGTGGGGCGGAGATTTTCGACTCGTCTTCCGTTACGGCGGAGTCACCTAGTGCAG	8930 fluorescence intensity (a.u.)
CTCAACATATTTCCTCCAATGTTCCTGCCTGTGGCTCACTCGGAGTCACCTAGTGCAG	8640 fluorescence intensity (a.u.)
CATCACTCCTACCTCGTGTCTCTGACACCCTGACCACACGCGGAGTCACCTAGTGCAG	9400 fluorescence intensity (a.u.)

— paper PMC7819943, “Rice protein-binding microarrays: a tool to detect cis-acting elements near promoter regions in rice”
